PubChem BioAssay AID1259254 – NCATS | 2017

Test: 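Finding genes that stop cells copying their DNA twice in one cycle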 (primary screen)
Cells: human HCT116 colorectal cancer cells
Knock-down reagent: single siRNA against human genes
Time to read-out: 3 days
Measurement: 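Imaged Hoechst DNA stain sorts each cell into a cycle phase by DNA amount; per plate, G2 fraction set to 0% for non-targeting and 100% for GMNN siRNA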
Reading the numbers: G2 robust z-score and G2 cells, % of GMNN control: higher = more G2 cells, more excess DNA replication
Active means: 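An siRNA counts as active if its G2 robust z-score lies at least 5 MADs above the screen median; here such calls match roughly 38% of GMNN control or more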
Shown is one part, drawn at random, of about 59,000 reagents. In the full data, about 1,550 (2.6%) are marked active. 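G2 share is only a proxy for re-replication; each gene was hit by three separate siRNAs, and active genes were retested.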 The numbers tell different reagents against one gene apart. Further read-outs or replicates are left out here. Not stated in the record: the amount of reagent.

target	reagent	G2 robust z-score	G2 cells, % of GMNN control	Outcome
GTF3C3 (GeneID 9330)	1	-0.78	-2.52	inactive
GTF3C3 (GeneID 9330)	2	2.36	19.6	inactive
GTF3C3 (GeneID 9330)	3	-0.884	-3.25	inactive
FOXR2 (GeneID 139628)	1	7.67	56.9	active
FOXR2 (GeneID 139628)	2	0.00387	2.99	inactive
FOXR2 (GeneID 139628)	3	1.13	10.9	inactive
FANCC (GeneID 2176)	1	2.41	19.9	inactive
FANCC (GeneID 2176)	2	-0.339	0.58	inactive
FANCC (GeneID 2176)	3	-1.04	-4.35	inactive
GPD1L (GeneID 23171)	1	-1.01	-4.14	inactive
GPD1L (GeneID 23171)	2	-0.194	1.61	inactive
GPD1L (GeneID 23171)	3	-0.604	-1.28	inactive
S100G (GeneID 795)	1	-0.739	-2.23	inactive
S100G (GeneID 795)	2	-0.786	-2.56	inactive
S100G (GeneID 795)	3	-0.443	-0.148	inactive
CPOX (GeneID 1371)	1	0.189	4.3	inactive
CPOX (GeneID 1371)	2	0.856	8.99	inactive
CPOX (GeneID 1371)	3	-1	-4.09	inactive
FAM167A (GeneID 83648)	1	0.0865	3.58	inactive
FAM167A (GeneID 83648)	2	0.0837	3.56	inactive
FAM167A (GeneID 83648)	3	1.68	14.8	inactive
MTM1 (GeneID 4534)	1	3.29	26.1	inactive
MTM1 (GeneID 4534)	2	-1.08	-4.6	inactive
MTM1 (GeneID 4534)	3	2.14	18	inactive
TMEM156 (GeneID 80008)	1	-0.958	-3.77	inactive
TMEM156 (GeneID 80008)	2	-0.233	1.33	inactive
TMEM156 (GeneID 80008)	3	-0.614	-1.35	inactive
SAP18 (GeneID 10284)	1	-0.239	1.29	inactive
SAP18 (GeneID 10284)	2	5.17	39.3	active
SAP18 (GeneID 10284)	3	1.97	16.8	inactive
